In PMC12045962 one finds binding data, which are given here for two substances.

The chains behind the UniProt entries cited, without tags or fusion partners.
UniProt P22736: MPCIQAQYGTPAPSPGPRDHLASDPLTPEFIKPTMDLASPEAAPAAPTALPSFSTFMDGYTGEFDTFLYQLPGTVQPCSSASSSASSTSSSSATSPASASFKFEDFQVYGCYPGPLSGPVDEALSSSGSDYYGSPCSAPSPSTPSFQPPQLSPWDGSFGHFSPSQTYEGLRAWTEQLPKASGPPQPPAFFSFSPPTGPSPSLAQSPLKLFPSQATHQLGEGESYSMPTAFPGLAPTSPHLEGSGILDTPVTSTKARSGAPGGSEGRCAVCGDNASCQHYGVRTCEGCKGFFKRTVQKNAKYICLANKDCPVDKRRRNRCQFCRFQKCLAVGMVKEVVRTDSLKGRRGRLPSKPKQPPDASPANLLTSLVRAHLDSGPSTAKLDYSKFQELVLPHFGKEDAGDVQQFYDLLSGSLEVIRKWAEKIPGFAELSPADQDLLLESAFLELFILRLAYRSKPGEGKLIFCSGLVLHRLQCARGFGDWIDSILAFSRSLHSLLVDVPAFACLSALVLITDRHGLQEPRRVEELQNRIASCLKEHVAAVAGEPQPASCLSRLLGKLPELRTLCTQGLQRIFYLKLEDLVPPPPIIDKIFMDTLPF
UniProt P01100: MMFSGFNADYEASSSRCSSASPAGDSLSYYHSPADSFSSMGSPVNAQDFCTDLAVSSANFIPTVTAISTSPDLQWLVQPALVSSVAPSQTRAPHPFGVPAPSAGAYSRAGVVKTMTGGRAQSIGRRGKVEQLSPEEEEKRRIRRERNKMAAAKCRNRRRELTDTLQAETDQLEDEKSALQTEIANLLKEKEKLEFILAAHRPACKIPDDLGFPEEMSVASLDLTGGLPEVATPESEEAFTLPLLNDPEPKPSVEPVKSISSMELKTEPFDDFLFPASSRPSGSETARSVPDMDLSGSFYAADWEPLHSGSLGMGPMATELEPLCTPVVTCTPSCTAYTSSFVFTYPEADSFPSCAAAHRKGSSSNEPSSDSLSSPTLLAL

Results are given in words; binding and its absence hold for the method and conditions named. In cells and extracts the contact can be indirect. Some entries that bind do so weakly or less than the wild type.

One test has as its target Flag-NR4A1 (UniProt P22736). Put plainly: co-IP; HEK293T cells transfected for 24 h with Flag-NR4A1 or HA-c-Fos alone or in combination; lysates (20 mM Tris-Cl pH 7.4, 1% Triton X-100, 1% sodium deoxycholate, 150 mM NaCl, 1 mM EDTA) immunoprecipitated with Flag or HA antibodies, protein A-agarose, 4 °C; western blot. A general note: In western blotting, separated proteins are transferred to a membrane and probed.

Test [1] deals with NR4A1 (human (endogenous in MCF7)) (UniProt P22736). The experiment in a line: co-IP; MCF7 cells treated with 10 uM Csn-B or vehicle for 24 h; endogenous proteins; 500 ug lysate with 2 ug antibody overnight at 4 °C, protein A-agarose; western blot.

Regarding HA-c-Fos (from UniProt P01100 1-380), the binding result with Flag-NR4A1 is “binds”. Take c-Fos (from UniProt P01100 1-380): the binding entry in test [1] is listed as “binds”.
